Where a name gives a salt, the structure may show the parent alone. The list shows a part of the results. Single values are uncertain, as repeats are few or missing.
System: hsa-miR-132-3p
Assay: miR-132-3p level in NGN2-iNs after compound treatment (TMM-normalised, ComBat batch-corrected) (batch-corrected normalised expression (arbitrary units)); higher = higher miR-132-3p expression
Settings: 10 µM; 24 h; human iPSC-derived NGN2 neurons (BR43)

Row | Structure (SMILES) | miR-132-3p level in NGN2-iNs
1 | CN1C(CCl)Nc2cc(Cl)c(S(N)(=O)=O)cc2S1(=O)=O (stereo not given) [Methyclothiazide] | -0.29
2 | COc1cccc2c1C(=O)c1c(O)c3c(c(O)c1C2=O)C[C@@](O)(C(C)=O)C[C@@H]3O[C@H]1C[C@H](N)[C@H](O)[C@H](C)O1 [Daunorubicin HCl] | -0.0207
3 | CNC(=O)c1cc(Oc2ccc(NC(=O)Nc3ccc(Cl)c(C(F)(F)F)c3)cc2)ccn1 [Sorafenib Tosylate] | 0.0724
4 | CNC(=O)c1cc(Oc2ccc(NC(=O)Nc3ccc(Cl)c(C(F)(F)F)c3)cc2)ccn1 [Sorafenib] | -1.05
5 | Cc1ccc(S(=O)(=O)Cc2nc(-c3ccc(C(=O)NCc4cccnc4)cc3)oc2C)cc1 | 2.04
6 | OCCn1cc(-c2cnc3nnn(Cc4ccc5ncccc5c4)c3n2)cn1 | 0.324
7 | Cc1ncc([N+](=O)[O-])n1CC(C)O (stereo not given) [Secnidazole] | 0.475
8 | COc1ccc2cc([C@H](C)C(=O)O)ccc2c1 [Naproxen Sodium] | -0.502
9 | C[C@]12CCC(=O)C=C1[C@@H]1C[C@@H]1[C@H]1[C@@H]3[C@@H]4C[C@@H]4[C@@]4(CCC(=O)O4)[C@@]3(C)CC[C@@H]12 [Drospirenone] | 0.122
10 | O=C(O)c1cc(=O)[nH]c(=O)[nH]1 [Orotic acid (6-Carboxyuracil)] | 0.106
11 | Cc1ccccc1C(C(=O)NC1CCCCC1)N(C(=O)Cn1ccnc1C)c1cccc(F)c1 (stereo not given) | -0.289
12 | CC1(C)S[C@@H]2[C@H](NC(=O)[C@H](N)c3ccccc3)C(=O)N2[C@H]1C(=O)O [Ampicillin sodium] | 0.651
13 | C=C[C@H]1CN2CC[C@H]1C[C@H]2[C@H](O)c1ccnc2ccc(OC)cc12 [Quinine HCl Dihydrate] | 1.78
14 | Oc1ccc(-c2nc(-c3ccc(F)cc3)c(-c3ccncc3)[nH]2)cc1 | -0.216
15 | NC(=O)c1cnccn1 [Pyrazinamide] | -0.294
16 | C#Cc1cccc(Nc2ncnc3cc(OCCOC)c(OCCO)cc23)c1 | 0.0422
17 | Cc1cnc(-c2ccccc2C(C)C)nc1NCc1ccc(-n2ccnn2)cc1 | -0.607
18 | Nc1ccc(-c2ccc3ncc4ccc(=O)n(-c5cccc(C(F)(F)F)c5)c4c3c2)cn1 [Torin 2] | -1.25
19 | CSc1nc2cc(Cl)c(Oc3cccc(Cl)c3Cl)cc2[nH]1 [Triclabendazole] | 0.884
20 | CN(C(Cc1ccc(OS(=O)(=O)c2cccc3cnccc23)cc1)C(=O)N1CCN(c2ccccc2)CC1)S(=O)(=O)c1cccc2cnccc12 (stereo not given) | 0.115
21 | CC(=O)O[C@H]1C(=O)[C@@]2(C)[C@H]([C@H](OC(=O)c3ccccc3)[C@]3(O)C[C@H](OC(=O)[C@H](O)[C@@H](NC(=O)c4ccccc4)c4ccccc4)C(C)=C1C3(C)C)[C@]1(OC(C)=O)CO[C@@H]1C[C@@H]2O [Paclitaxel] | 0.412
22 | NC(=O)c1cccc(-c2cccc(OC(=O)NC3CCCCC3)c2)c1 | 1.9
23 | CCCNC(=O)Nc1ccc(Oc2ncnc3cc(OC)c(OC)cc23)cc1Cl | 0.706
24 | Cc1cn(-c2cc(NC(=O)c3ccc(C)c(Nc4nccc(-c5cccnc5)n4)c3)cc(C(F)(F)F)c2)cn1 [Nilotinib (AMN-107)] | 0.684

Some of the entries so far, in CSV form:
Row,Structure (SMILES),miR-132-3p level in NGN2-iNs
3,CNC(=O)c1cc(Oc2ccc(NC(=O)Nc3ccc(Cl)c(C(F)(F)F)c3)cc2)ccn1 [Sorafenib Tosylate],0.0724
4,CNC(=O)c1cc(Oc2ccc(NC(=O)Nc3ccc(Cl)c(C(F)(F)F)c3)cc2)ccn1 [Sorafenib],-1.05
5,Cc1ccc(S(=O)(=O)Cc2nc(-c3ccc(C(=O)NCc4cccnc4)cc3)oc2C)cc1,2.04
6,OCCn1cc(-c2cnc3nnn(Cc4ccc5ncccc5c4)c3n2)cn1,0.324

More results follow.

Row | Structure (SMILES) | miR-132-3p level in NGN2-iNs
25 | NC(=O)c1ccc(-c2nc(-c3ccccn3)c(-c3ccc4c(c3)OCO4)[nH]2)cc1 | 0.166
26 | CN1C(=O)C(Cc2c[nH]c3ccccc23)NC1=S (stereo not given) [Necrostatin-1] | -0.627
27 | O=S(=O)(O)Oc1ccc(C(c2ccc(OS(=O)(=O)O)cc2)c2ccccn2)cc1 [Sodium Picosulfate] | -0.462
28 | CCn1c(-c2nonc2N)nc2c(C#CC(C)(C)O)ncc(OC[C@H]3CCCNC3)c21 | 0.45
29 | CC(C)OC(=O)C(C)(C)Oc1ccc(C(=O)c2ccc(Cl)cc2)cc1 [Fenofibrate] | -1.41
30 | Cc1ccc(NC(=O)C2(c3ccc4c(c3)OC(F)(F)O4)CC2)nc1-c1cccc(C(=O)O)c1 [VX-809 (Lumacaftor)] | 0.148
31 | CCOC(=O)[C@H](CCc1ccccc1)N[C@@H](C)C(=O)N1C(=O)N(C)C[C@H]1C(=O)O [Imidapril HCl] | -0.733
32 | C[C@@H]1C[C@H]2[C@@H]3CCC4=CC(=O)C=C[C@]4(C)[C@@]3(Cl)[C@@H](O)C[C@]2(C)[C@@]1(OC(=O)c1ccco1)C(=O)CCl [Mometasone furoate] | -0.932
33 | c1coc(CNc2ncnc3[nH]cnc23)c1 [Kinetin] | 0.454
34 | C[C@]12CCC3=C4CCC(=O)C=C4CC[C@H]3[C@@H]1CC[C@@]2(O)CC#N [Dienogest] | 0.554
35 | COc1cc2ncnc(Nc3cccc(Cl)c3)c2cc1OC [AG-1478 (Tyrphostin AG-1478)] | 1.01
36 | O=c1oc2cc(O)ccc2s1 [Tioxolone] | 0.0871
37 | CN/C(=N\CCSCc1nc[nH]c1C)NC#N [Cimetidine] | 1.91
38 | O=C(O)c1cc(/N=N/c2ccc(S(=O)(=O)Nc3ccccn3)cc2)ccc1O [Sulfasalazine] | -0.0564
39 | C=C1c2cccc(O)c2C(O)=C2C(=O)[C@]3(O)C(O)=C(C(N)=O)C(=O)[C@@H](N(C)C)[C@@H]3[C@@H](O)[C@H]12 [Methacycline HCl] | 1.68
40 | NC(=O)c1ccc(I)c([N+](=O)[O-])c1 [Iniparib (BSI-201)] | 0.167
41 | COC(=O)Nc1ccc(-c2nc(N3CCOCC3)c3cnn(C4CCN(C(=O)OC)CC4)c3n2)cc1 | 0.306
42 | CNC[C@H](O)[C@@H](O)[C@H](O)[C@H](O)CO [Meglumine] | 0.693
43 | COC(=O)N[C@H](C(=O)N[C@@H](Cc1ccccc1)[C@@H](O)CN(Cc1ccc(-c2ccccn2)cc1)NC(=O)[C@@H](NC(=O)OC)C(C)(C)C)C(C)(C)C [Atazanavir Sulfate] | 0.0906
44 | CCC[S+]([O-])c1ccc2[nH]c(NC(=O)OC)nc2c1 (stereo not given) [Albendazole Oxide] | -0.177
45 | Cc1ccnc(NS(=O)(=O)c2ccc(N)cc2)n1 [Sulfamerazine] | -0.36
46 | COc1ccc(C[C@H](N)C(=O)N[C@H]2[C@@H](O)[C@H](n3cnc4c(N(C)C)ncnc43)O[C@@H]2CO)cc1 [Puromycin 2HCl] | 1.83
47 | O=c1ccn([C@@H]2O[C@H](CO)[C@@H](O)[C@H]2O)c(=O)[nH]1 [Uridine] | 0.0609
48 | CC(C)n1c(/C=C/C(O)CC(O)CC(=O)O)c(-c2ccc(F)cc2)c2ccccc21 (stereo not given) [Fluvastatin Sodium] | -2.02

Row | Structure (SMILES) | miR-132-3p level in NGN2-iNs
49 | CCCCNc1cc(C(=O)O)cc(S(N)(=O)=O)c1Oc1ccccc1 [Bumetanide] | -0.395
50 | CCN(CC)CCOC(=O)c1ccc(N)cc1 [Procaine HCl] | 0.213
51 | O=C1CCC[C@@H]2[C@H]3CCC[N+]4([O-])CCC[C@@H](CN12)[C@@H]34 (stereo not given in full) [Oxymatrine] | 0.117
52 | COc1cccc2cc(-c3nc([C@H]4CC[C@H](C(=O)O)CC4)n4ncnc(N)c34)[nH]c12 | 0.132
53 | O=C(O)Cc1cccc(OCCCN(Cc2cccc(C(F)(F)F)c2Cl)CC(c2ccccc2)c2ccccc2)c1 | -0.92
54 | CC(=O)N[C@@H](CS)C(=O)O [Acetylcysteine] | 0.699
55 | COc1cc(C2Oc3cc([C@H]4Oc5cc(O)cc(O)c5C(=O)[C@@H]4O)ccc3OC2CO)ccc1O (stereo not given in full) [Silibinin] | -0.0665
56 | COc1cc(C2Oc3cc([C@H]4Oc5cc(O)cc(O)c5C(=O)[C@@H]4O)ccc3OC2CO)ccc1O (stereo not given in full) [Silymarin] | -1.48
57 | O=c1cc(-c2ccccc2)oc2cc(O)c(O)c(O)c12 [Baicalein] | 0.771
58 | CN(C)Cc1cccc(N=C(c2ccccc2)c2c(O)[nH]c3cc(C(=O)N(C)C)ccc23)c1 | 0.988
59 | CC[C@H]1OC(=O)C[C@@H](O)[C@H](C)[C@@H](O[C@@H]2O[C@H](C)[C@@H](O)[C@H](N(C)C)[C@H]2O)[C@@H](CCN2C[C@H](C)C[C@H](C)C2)C[C@@H](C)C(=O)/C=C/C(C)=C/[C@@H]1CO[C@@H]1O[C@H](C)[C@@H](O)[C@@H](OC)[C@H]1OC [Tilmicosin] | -0.805
60 | CNCCCC12CCC(c3ccccc31)c1ccccc12 [Maprotiline HCl] | 0.545
61 | CCc1c(O)cc(O)c(C(=O)c2ccc(OCCN3CCOCC3)c(OC)c2)c1CC(=O)N(CCOC)CCOC | 0.914
62 | Cc1coc2c1C(=O)C(=O)c1c-2ccc2c1CCCC2(C)C [Tanshinone IIA] | 0.372
63 | COc1ccc2c(c1)c(CC(=O)N1CCOCC1)c(C)n2C(=O)c1ccc(Cl)cc1 | 2.17
64 | C[C@@H]1O[C@@H](OC[C@H]2O[C@@H](Oc3c(-c4ccc(OCCO)c(OCCO)c4)oc4cc(OCCO)cc(O)c4c3=O)[C@H](O)[C@@H](O)[C@@H]2O)[C@H](O)[C@H](O)[C@H]1O [Troxerutin] | -0.16
65 | CCN(CC)C(=O)/C(C#N)=C/c1cc(O)c(O)c([N+](=O)[O-])c1 [Entacapone] | 0.0389
66 | C[C@]12C=CC(=O)C=C1CC[C@H]1[C@@H]3C[C@@H](O)[C@](O)(C(=O)CO)[C@@]3(C)C[C@H](O)[C@@]12F [Triamcinolone] | 1.64
67 | CC1(C)O[C@@H]2C[C@H]3[C@@H]4CCC5=CC(=O)CC[C@]5(C)[C@@]4(F)[C@@H](O)C[C@]3(C)[C@]2(C(=O)CCl)O1 [Halcinonide] | -0.125
68 | C[C@@H](O)[C@H]1C(=O)N2C(C(=O)O)=C(S[C@@H]3CN[C@H](C(=O)N(C)C)C3)[C@H](C)[C@H]12 [Meropenem] | -0.155
69 | O=c1c(-c2ccc(O)cc2)coc2cc(O)ccc12 [Daidzein] | -0.273
70 | CC1(C)CC[C@]2(C(=O)O)CC[C@]3(C)C(=CC[C@@H]4[C@@]5(C)CC[C@H](O)C(C)(C)[C@@H]5CC[C@]43C)[C@@H]2C1 [Oleanolic Acid] | -0.487
